{"sequences": {"note": "The chains behind the UniProt entries cited, without tags or fusion partners. Where a name states a change or a piece, a line headed by the entry shows the natural chain unless it says otherwise.", "UniProt O75694": "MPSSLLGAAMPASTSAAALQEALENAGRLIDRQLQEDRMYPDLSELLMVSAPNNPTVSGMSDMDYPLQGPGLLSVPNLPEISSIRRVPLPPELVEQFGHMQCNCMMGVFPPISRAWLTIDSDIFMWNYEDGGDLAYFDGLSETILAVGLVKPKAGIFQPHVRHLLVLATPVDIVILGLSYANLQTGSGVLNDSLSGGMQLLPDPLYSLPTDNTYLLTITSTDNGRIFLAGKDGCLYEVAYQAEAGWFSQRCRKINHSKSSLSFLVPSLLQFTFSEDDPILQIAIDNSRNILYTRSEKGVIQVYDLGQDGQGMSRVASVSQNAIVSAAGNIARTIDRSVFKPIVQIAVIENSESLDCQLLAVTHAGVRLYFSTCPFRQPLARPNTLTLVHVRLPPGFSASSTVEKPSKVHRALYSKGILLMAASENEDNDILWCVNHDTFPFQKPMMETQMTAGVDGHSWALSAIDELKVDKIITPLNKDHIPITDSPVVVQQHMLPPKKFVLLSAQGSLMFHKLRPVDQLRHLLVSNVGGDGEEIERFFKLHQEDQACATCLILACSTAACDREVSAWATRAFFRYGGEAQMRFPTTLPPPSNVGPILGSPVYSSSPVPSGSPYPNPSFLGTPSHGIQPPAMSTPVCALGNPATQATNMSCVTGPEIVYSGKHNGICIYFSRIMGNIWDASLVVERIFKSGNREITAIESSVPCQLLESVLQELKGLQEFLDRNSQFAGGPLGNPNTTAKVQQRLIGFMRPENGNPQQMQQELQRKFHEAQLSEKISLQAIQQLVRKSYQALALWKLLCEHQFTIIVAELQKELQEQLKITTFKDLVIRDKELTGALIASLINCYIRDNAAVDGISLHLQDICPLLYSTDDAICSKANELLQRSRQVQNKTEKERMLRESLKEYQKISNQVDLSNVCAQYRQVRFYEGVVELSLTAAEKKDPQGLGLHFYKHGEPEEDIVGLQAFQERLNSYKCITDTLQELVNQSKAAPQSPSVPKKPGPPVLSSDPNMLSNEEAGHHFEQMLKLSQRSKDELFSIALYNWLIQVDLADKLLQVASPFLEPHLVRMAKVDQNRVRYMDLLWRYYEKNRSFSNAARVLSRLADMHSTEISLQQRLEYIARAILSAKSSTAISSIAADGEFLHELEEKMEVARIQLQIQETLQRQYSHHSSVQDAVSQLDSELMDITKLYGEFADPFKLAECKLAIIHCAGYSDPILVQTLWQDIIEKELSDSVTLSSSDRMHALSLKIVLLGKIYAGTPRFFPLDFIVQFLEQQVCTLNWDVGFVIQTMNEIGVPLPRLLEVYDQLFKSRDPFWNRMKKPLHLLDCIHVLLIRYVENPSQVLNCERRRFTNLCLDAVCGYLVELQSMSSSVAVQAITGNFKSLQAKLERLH", "UniProt P53384": "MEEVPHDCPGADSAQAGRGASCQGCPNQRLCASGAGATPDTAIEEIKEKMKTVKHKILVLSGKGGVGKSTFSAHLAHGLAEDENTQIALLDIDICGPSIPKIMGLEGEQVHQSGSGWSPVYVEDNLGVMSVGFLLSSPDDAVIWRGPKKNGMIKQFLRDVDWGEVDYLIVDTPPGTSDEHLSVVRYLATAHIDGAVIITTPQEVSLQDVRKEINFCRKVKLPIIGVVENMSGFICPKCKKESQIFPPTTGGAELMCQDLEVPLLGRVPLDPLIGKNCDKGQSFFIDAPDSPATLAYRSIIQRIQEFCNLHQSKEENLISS", "UniProt Q99567": "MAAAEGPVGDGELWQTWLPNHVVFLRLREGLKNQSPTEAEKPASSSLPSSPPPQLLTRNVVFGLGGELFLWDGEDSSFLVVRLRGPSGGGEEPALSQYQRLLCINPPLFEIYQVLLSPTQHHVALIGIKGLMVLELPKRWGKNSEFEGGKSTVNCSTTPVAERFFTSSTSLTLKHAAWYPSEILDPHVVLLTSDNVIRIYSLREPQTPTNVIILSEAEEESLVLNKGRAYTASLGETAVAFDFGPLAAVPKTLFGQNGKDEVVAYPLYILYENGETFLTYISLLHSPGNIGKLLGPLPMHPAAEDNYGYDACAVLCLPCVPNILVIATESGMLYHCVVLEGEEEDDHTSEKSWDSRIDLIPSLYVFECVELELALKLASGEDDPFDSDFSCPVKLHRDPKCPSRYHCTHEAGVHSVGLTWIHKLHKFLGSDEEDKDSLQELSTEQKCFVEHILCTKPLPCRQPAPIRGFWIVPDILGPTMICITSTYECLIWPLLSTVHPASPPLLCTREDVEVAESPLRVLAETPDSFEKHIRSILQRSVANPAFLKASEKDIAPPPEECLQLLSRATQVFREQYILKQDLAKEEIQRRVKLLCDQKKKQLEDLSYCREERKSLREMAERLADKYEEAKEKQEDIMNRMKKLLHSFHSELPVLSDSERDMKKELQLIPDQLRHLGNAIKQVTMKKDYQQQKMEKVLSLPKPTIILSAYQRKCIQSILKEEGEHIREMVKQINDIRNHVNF", "UniProt Q8NFH4": "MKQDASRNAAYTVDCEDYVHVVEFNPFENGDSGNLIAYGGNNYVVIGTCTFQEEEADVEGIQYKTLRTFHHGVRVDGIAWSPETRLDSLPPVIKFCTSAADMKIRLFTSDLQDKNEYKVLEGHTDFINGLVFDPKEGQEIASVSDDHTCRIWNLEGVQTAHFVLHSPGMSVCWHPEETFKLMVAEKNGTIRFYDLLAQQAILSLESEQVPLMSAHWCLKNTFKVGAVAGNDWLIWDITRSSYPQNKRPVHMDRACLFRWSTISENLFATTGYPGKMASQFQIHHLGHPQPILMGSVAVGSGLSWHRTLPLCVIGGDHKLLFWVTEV", "UniProt Q9Y5Y2": "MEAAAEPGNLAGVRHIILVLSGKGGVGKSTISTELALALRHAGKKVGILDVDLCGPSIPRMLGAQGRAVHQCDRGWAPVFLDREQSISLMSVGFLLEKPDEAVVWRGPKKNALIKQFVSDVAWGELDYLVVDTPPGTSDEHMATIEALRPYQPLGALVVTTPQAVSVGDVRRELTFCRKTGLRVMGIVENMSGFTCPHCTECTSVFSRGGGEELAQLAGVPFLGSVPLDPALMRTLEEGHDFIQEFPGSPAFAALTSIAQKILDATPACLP", "UniProt Q56VL3": "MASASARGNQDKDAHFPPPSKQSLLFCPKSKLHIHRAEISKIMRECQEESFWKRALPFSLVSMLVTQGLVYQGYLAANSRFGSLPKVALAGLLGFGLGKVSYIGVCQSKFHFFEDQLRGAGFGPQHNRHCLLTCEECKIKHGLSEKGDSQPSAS", "UniProt Q9UKX7": "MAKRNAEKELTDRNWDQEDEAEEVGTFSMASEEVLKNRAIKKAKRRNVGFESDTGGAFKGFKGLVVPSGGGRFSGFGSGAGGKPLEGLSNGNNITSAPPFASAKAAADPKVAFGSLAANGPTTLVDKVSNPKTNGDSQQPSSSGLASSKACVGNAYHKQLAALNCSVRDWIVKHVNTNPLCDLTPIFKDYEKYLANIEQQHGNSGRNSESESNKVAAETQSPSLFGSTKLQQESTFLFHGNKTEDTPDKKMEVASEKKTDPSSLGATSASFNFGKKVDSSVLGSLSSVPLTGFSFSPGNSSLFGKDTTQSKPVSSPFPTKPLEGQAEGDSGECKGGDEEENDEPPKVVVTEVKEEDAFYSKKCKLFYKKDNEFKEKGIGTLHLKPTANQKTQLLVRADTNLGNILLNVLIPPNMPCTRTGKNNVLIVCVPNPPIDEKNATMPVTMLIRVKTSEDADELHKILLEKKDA", "UniProt Q9BW27": "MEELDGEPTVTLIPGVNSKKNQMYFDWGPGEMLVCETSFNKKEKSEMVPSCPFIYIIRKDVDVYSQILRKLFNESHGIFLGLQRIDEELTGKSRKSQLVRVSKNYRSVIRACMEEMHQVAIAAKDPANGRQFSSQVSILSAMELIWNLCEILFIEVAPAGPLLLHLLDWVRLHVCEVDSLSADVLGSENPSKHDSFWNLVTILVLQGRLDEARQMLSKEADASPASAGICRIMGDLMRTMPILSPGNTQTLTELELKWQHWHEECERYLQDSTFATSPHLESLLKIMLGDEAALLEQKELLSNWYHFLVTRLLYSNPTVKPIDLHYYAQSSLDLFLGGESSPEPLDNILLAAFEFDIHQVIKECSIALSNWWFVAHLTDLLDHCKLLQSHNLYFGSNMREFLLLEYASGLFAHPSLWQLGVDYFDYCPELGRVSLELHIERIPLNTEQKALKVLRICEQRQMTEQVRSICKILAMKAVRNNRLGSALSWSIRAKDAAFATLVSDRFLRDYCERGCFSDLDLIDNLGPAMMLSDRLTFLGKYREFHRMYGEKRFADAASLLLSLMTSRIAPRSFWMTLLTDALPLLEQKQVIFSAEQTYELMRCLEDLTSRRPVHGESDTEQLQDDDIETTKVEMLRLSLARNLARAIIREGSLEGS", "UniProt Q01968": "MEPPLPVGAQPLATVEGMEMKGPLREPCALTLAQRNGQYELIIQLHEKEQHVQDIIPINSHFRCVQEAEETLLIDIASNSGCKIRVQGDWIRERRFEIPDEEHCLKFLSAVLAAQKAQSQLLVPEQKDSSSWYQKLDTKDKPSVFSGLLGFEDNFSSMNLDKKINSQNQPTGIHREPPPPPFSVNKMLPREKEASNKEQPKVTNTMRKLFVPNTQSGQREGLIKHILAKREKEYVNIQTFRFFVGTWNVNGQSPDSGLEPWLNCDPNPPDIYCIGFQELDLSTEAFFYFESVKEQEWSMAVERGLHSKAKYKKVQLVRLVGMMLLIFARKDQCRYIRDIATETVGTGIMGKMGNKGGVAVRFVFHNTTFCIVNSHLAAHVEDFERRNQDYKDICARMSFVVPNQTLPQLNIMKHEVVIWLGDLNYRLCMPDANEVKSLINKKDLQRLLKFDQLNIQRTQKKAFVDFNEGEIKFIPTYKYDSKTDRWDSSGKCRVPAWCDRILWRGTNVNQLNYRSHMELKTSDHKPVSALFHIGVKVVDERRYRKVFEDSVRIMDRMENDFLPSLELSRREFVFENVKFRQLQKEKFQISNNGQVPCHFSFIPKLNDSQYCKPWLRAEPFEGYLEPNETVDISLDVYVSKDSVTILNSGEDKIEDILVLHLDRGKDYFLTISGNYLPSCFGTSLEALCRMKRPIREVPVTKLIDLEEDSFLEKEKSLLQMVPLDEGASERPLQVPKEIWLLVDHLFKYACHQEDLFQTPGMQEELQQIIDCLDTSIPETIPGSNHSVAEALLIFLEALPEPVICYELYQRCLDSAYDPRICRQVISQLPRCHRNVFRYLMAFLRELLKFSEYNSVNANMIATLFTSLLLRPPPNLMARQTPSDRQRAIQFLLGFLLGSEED", "UniProt Q9UHK0": "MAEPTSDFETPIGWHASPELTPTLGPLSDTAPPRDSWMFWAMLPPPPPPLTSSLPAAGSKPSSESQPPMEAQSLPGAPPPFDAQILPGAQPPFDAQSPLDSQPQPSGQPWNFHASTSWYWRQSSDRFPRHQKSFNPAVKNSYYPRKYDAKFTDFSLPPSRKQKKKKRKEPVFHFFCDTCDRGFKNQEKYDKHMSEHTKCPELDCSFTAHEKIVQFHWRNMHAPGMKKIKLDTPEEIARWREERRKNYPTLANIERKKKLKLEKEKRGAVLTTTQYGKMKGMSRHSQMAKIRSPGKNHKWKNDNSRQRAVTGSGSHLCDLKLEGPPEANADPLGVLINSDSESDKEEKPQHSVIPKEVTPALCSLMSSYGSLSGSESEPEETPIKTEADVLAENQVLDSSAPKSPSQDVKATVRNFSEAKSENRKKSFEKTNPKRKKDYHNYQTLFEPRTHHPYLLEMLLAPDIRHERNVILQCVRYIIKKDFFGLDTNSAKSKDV", "UniProt O15381": "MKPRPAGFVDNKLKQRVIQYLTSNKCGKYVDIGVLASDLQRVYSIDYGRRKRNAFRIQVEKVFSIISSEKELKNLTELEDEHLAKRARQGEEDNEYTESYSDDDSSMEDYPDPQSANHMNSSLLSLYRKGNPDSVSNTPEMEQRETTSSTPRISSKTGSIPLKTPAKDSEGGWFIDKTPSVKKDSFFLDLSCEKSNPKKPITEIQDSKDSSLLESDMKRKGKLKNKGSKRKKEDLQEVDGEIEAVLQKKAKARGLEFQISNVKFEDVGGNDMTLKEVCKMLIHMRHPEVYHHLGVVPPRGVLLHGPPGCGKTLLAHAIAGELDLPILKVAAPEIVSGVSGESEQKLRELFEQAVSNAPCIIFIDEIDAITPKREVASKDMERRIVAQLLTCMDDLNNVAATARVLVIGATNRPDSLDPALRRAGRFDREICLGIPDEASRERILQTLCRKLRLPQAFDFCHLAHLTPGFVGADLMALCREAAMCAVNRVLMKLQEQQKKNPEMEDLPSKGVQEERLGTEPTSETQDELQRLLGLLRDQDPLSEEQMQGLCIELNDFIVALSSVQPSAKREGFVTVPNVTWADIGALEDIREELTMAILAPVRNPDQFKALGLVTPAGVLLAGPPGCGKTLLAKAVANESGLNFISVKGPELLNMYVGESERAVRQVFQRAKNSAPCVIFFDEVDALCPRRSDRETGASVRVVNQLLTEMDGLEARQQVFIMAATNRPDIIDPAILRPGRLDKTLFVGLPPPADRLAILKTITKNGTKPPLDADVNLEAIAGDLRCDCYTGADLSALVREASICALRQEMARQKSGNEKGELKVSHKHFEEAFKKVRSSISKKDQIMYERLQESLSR"}, "source": "the supplement of paper PMC12067093", "about": "“Discovery and optimisation of a covalent ligand for TRIM25 and its application to targeted protein ubiquitination” (Chemical Science, 2025)", "note": "The list shows a part of the results.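 Further: competitive profiling in live THP-1 cells: cysteine peptides tagged with an iodoacetamide desthiobiotin (IA-DTB) probe, intensity after compound treatment relative to DMSO-treated cells.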"}
{"compound": "Cc1cc(ccc1-c1ccccc1)C(=O)N1CCCN(CC1)C(=O)CCl [compound 10]", "assay": "probe-labelled cysteine peptide fold change vs DMSO (competition) (log2 fold change); higher = less target engagement (more negative = stronger competition)", "details": "10 µM; THP-1; incubation time: 4 h"}
{"target": "NUP155_O75694_433_GILLMAASENEDNDILWCVNHDTFPFQK (UniProt O75694)", "probe-labelled cysteine peptide fold change": 0.304}
{"target": "NUP98_P52948_1234_HSTVHVDELCPLIVPNLGVAVIHDYADWVK (UniProt P52948)", "probe-labelled cysteine peptide fold change": -0.0516}
{"target": "NUBP1_P53384_256_ESQIFPPTTGGAELMCQDLEVPLLGR (UniProt P53384)", "probe-labelled cysteine peptide fold change": -0.0464}
{"target": "NUS1_Q96E22_235_QKRPTDLDVDTLASLLSSNGCPDPDLVLK (UniProt Q96E22)", "probe-labelled cysteine peptide fold change": -0.231}
{"target": "NUP88_Q99567_447+454_CFVEHILCTKPLPCR (UniProt Q99567)", "probe-labelled cysteine peptide fold change": -0.19}
{"target": "ODF2_Q5BJF6_327_EVEELLQEIQCEK (UniProt Q5BJF6)", "probe-labelled cysteine peptide fold change": -0.0977}
{"target": "NUP37_Q8NFH4_149_EGQEIASVSDDHTCR (UniProt Q8NFH4)", "probe-labelled cysteine peptide fold change": 0.189}
{"target": "OGFOD3_Q6PK18_90_FIEVPCSEDYDSHRR (UniProt Q6PK18)", "probe-labelled cysteine peptide fold change": -0.581}
{"target": "NUBP2_Q9Y5Y2_196_VMGIVENMSGFTCPHCTECTSVFSR (UniProt Q9Y5Y2)", "probe-labelled cysteine peptide fold change": 0.0618}
{"target": "NUP160_Q12769_1042_QLVVVLCER (UniProt Q12769)", "probe-labelled cysteine peptide fold change": 0.247}
{"target": "OCIAD2_Q56VL3_106_VSYIGVCQSK (UniProt Q56VL3)", "probe-labelled cysteine peptide fold change": -0.21}
{"target": "ODR4_Q5SWX8_77_LDNLDEEWATEHACQVSR (UniProt Q5SWX8)", "probe-labelled cysteine peptide fold change": 0.205}
{"target": "NUP205_Q92621_1662_CQDVSAGSLQELALLTGIISK (UniProt Q92621)", "probe-labelled cysteine peptide fold change": 0.0612}
{"target": "OGFOD1_Q8N543_143_IDLESTIDMSCAK (UniProt Q8N543)", "probe-labelled cysteine peptide fold change": 0.0696}
{"target": "NUP50_Q9UKX7_428_NNVLIVCVPNPPIDEK (UniProt Q9UKX7)", "probe-labelled cysteine peptide fold change": -0.0233}
{"target": "NUP133_Q8WUM0_700+702_EVSQVDTICECLLEHEEQVLR (UniProt Q8WUM0)", "probe-labelled cysteine peptide fold change": 0.452}
{"target": "OGT_O15294_68_QEPDNTGVLLLLSSIHFQCR (UniProt O15294)", "probe-labelled cysteine peptide fold change": 0.327}
{"target": "NUP85_Q9BW27_603_CLEDLTSR (UniProt Q9BW27)", "probe-labelled cysteine peptide fold change": 0.00808}
{"target": "OGT_O15294_323_LCPTHADSLNNLANIK (UniProt O15294)", "probe-labelled cysteine peptide fold change": 0.106}
{"target": "NUMA1_Q14980_1367_HLCQQLQAEQAAAEK (UniProt Q14980)", "probe-labelled cysteine peptide fold change": -0.0708}
{"target": "NUP98_P52948_760_GECIVSDFTIGRK (UniProt P52948)", "probe-labelled cysteine peptide fold change": 0.0932}
{"target": "NUDT18_Q6ZVK8_185+189_HPLILPQELPCDLVCQR (UniProt Q6ZVK8)", "probe-labelled cysteine peptide fold change": 0.126}
{"target": "NUDT21_O43809_144_QDGVLQDWVIDDCIGNWWRPNFEPPQYPYIPAHITKPK (UniProt O43809)", "probe-labelled cysteine peptide fold change": 0.0744}
{"target": "NXF1_Q9UBU9_328_LEELWLDGNSLCDTFR (UniProt Q9UBU9)", "probe-labelled cysteine peptide fold change": 0.246}
{"target": "NUP160_Q12769_292+303_GDQSPSDRPLSLAVHCVEHDAFIFALCQDHK (UniProt Q12769)", "probe-labelled cysteine peptide fold change": 0.075}
{"target": "OCRL_Q01968_611_LNDSQYCKPWLR (UniProt Q01968)", "probe-labelled cysteine peptide fold change": -0.146}
{"target": "NUBP1_P53384_235_VKLPIIGVVENMSGFICPK (UniProt P53384)", "probe-labelled cysteine peptide fold change": 0.135}
{"target": "NUFIP1_Q9UHK0_199_CPELDCSFTAHEK (UniProt Q9UHK0)", "probe-labelled cysteine peptide fold change": -0.184}
{"target": "NUP210_Q8TEM1_109_CDAIVDLIHDIQIVSTTR (UniProt Q8TEM1)", "probe-labelled cysteine peptide fold change": 0.163}
{"target": "NUP205_Q92621_698_CEEYPLTR (UniProt Q92621)", "probe-labelled cysteine peptide fold change": 0.0608}
{"target": "NVL_O15381_460_LPQAFDFCHLAHLTPGFVGADLMALCR (UniProt O15381)", "probe-labelled cysteine peptide fold change": -0.11}
{"target": "NUP133_Q8WUM0_702_EVSQVDTICECLLEHEEQVLR (UniProt Q8WUM0)", "probe-labelled cysteine peptide fold change": 0.107}
{"target": "NUMA1_Q14980_80_KHPSSPECLVSAQK (UniProt Q14980)", "probe-labelled cysteine peptide fold change": 0.0544}
{"target": "NUP160_Q12769_473_EMYLQSLFTPGQFTNEALCK (UniProt Q12769)", "probe-labelled cysteine peptide fold change": 0.168}
{"target": "NUMA1_Q14980_1930_VCPPHLK (UniProt Q14980)", "probe-labelled cysteine peptide fold change": -0.216}
{"target": "NVL_O15381_431_EICLGIPDEASR (UniProt O15381)", "probe-labelled cysteine peptide fold change": 0.0387}
{"target": "NUDT16_Q96DE0_23_HACHALLYAPDPGMLFGR (UniProt Q96DE0)", "probe-labelled cysteine peptide fold change": 0.126}
{"target": "NUP153_P49790_148_SHLNFSMLESPALHCQPSTSSAFPIGSSGFSLVK (UniProt P49790)", "probe-labelled cysteine peptide fold change": 0.077}
{"target": "NUP155_O75694_667_HNGICIYFSR (UniProt O75694)", "probe-labelled cysteine peptide fold change": -0.0934}
{"target": "NUBP2_Q9Y5Y2_54_KVGILDVDLCGPSIPR (UniProt Q9Y5Y2)", "probe-labelled cysteine peptide fold change": -0.0687}
{"compound": "Cc1cc(ccc1-c1ccccc1)C(=O)N1CCCN(CC1)C(=O)CCl [compound 10]", "assay": "probe-labelled cysteine peptide fold change vs DMSO (competition) (log2 fold change); higher = less target engagement (more negative = stronger competition)", "details": "50 µM; THP-1; incubation time: 4 h"}
{"target": "NUP155_O75694_433_GILLMAASENEDNDILWCVNHDTFPFQK (UniProt O75694)", "probe-labelled cysteine peptide fold change": 0.47}
{"target": "NUP98_P52948_1234_HSTVHVDELCPLIVPNLGVAVIHDYADWVK (UniProt P52948)", "probe-labelled cysteine peptide fold change": 0.146}
{"target": "NUBP1_P53384_256_ESQIFPPTTGGAELMCQDLEVPLLGR (UniProt P53384)", "probe-labelled cysteine peptide fold change": -0.0989}
{"target": "NUS1_Q96E22_235_QKRPTDLDVDTLASLLSSNGCPDPDLVLK (UniProt Q96E22)", "probe-labelled cysteine peptide fold change": -0.487}
{"target": "NUP88_Q99567_447+454_CFVEHILCTKPLPCR (UniProt Q99567)", "probe-labelled cysteine peptide fold change": -0.613}
{"target": "ODF2_Q5BJF6_327_EVEELLQEIQCEK (UniProt Q5BJF6)", "probe-labelled cysteine peptide fold change": 0.331}
{"target": "NUP37_Q8NFH4_149_EGQEIASVSDDHTCR (UniProt Q8NFH4)", "probe-labelled cysteine peptide fold change": 0.155}
{"target": "OGFOD3_Q6PK18_90_FIEVPCSEDYDSHRR (UniProt Q6PK18)", "probe-labelled cysteine peptide fold change": -0.0624}
{"target": "NUBP2_Q9Y5Y2_196_VMGIVENMSGFTCPHCTECTSVFSR (UniProt Q9Y5Y2)", "probe-labelled cysteine peptide fold change": -0.172}
{"target": "NUP160_Q12769_1042_QLVVVLCER (UniProt Q12769)", "probe-labelled cysteine peptide fold change": 0.194}
{"target": "OCIAD2_Q56VL3_106_VSYIGVCQSK (UniProt Q56VL3)", "probe-labelled cysteine peptide fold change": -0.000731}
{"target": "ODR4_Q5SWX8_77_LDNLDEEWATEHACQVSR (UniProt Q5SWX8)", "probe-labelled cysteine peptide fold change": 0.194}
{"target": "NUP205_Q92621_1662_CQDVSAGSLQELALLTGIISK (UniProt Q92621)", "probe-labelled cysteine peptide fold change": 0.271}
{"target": "OGFOD1_Q8N543_143_IDLESTIDMSCAK (UniProt Q8N543)", "probe-labelled cysteine peptide fold change": 0.281}
{"target": "NUP50_Q9UKX7_428_NNVLIVCVPNPPIDEK (UniProt Q9UKX7)", "probe-labelled cysteine peptide fold change": 0.127}
{"target": "NUP133_Q8WUM0_700+702_EVSQVDTICECLLEHEEQVLR (UniProt Q8WUM0)", "probe-labelled cysteine peptide fold change": -0.273}
{"target": "OGT_O15294_68_QEPDNTGVLLLLSSIHFQCR (UniProt O15294)", "probe-labelled cysteine peptide fold change": 0.681}
{"target": "NUP85_Q9BW27_603_CLEDLTSR (UniProt Q9BW27)", "probe-labelled cysteine peptide fold change": 0.173}
{"target": "OGT_O15294_323_LCPTHADSLNNLANIK (UniProt O15294)", "probe-labelled cysteine peptide fold change": 0.0207}
{"target": "NUMA1_Q14980_1367_HLCQQLQAEQAAAEK (UniProt Q14980)", "probe-labelled cysteine peptide fold change": 0.0571}
{"target": "NUP98_P52948_760_GECIVSDFTIGRK (UniProt P52948)", "probe-labelled cysteine peptide fold change": -0.0434}
{"target": "NUDT18_Q6ZVK8_185+189_HPLILPQELPCDLVCQR (UniProt Q6ZVK8)", "probe-labelled cysteine peptide fold change": -0.127}
{"target": "NUDT21_O43809_144_QDGVLQDWVIDDCIGNWWRPNFEPPQYPYIPAHITKPK (UniProt O43809)", "probe-labelled cysteine peptide fold change": 0.0879}
{"target": "NXF1_Q9UBU9_328_LEELWLDGNSLCDTFR (UniProt Q9UBU9)", "probe-labelled cysteine peptide fold change": 0.303}
{"target": "NUP160_Q12769_292+303_GDQSPSDRPLSLAVHCVEHDAFIFALCQDHK (UniProt Q12769)", "probe-labelled cysteine peptide fold change": 0.189}
{"target": "OCRL_Q01968_611_LNDSQYCKPWLR (UniProt Q01968)", "probe-labelled cysteine peptide fold change": -0.914}
{"target": "NUBP1_P53384_235_VKLPIIGVVENMSGFICPK (UniProt P53384)", "probe-labelled cysteine peptide fold change": -0.223}
{"target": "NUFIP1_Q9UHK0_199_CPELDCSFTAHEK (UniProt Q9UHK0)", "probe-labelled cysteine peptide fold change": 0.281}
{"target": "NUP210_Q8TEM1_109_CDAIVDLIHDIQIVSTTR (UniProt Q8TEM1)", "probe-labelled cysteine peptide fold change": 0.398}
{"target": "NUP205_Q92621_698_CEEYPLTR (UniProt Q92621)", "probe-labelled cysteine peptide fold change": -0.00172}
{"target": "NVL_O15381_460_LPQAFDFCHLAHLTPGFVGADLMALCR (UniProt O15381)", "probe-labelled cysteine peptide fold change": 0.025}
{"target": "NUP133_Q8WUM0_702_EVSQVDTICECLLEHEEQVLR (UniProt Q8WUM0)", "probe-labelled cysteine peptide fold change": 0.18}
{"target": "NUMA1_Q14980_80_KHPSSPECLVSAQK (UniProt Q14980)", "probe-labelled cysteine peptide fold change": -0.524}
{"target": "NUP160_Q12769_473_EMYLQSLFTPGQFTNEALCK (UniProt Q12769)", "probe-labelled cysteine peptide fold change": -0.0779}
{"target": "NUMA1_Q14980_1930_VCPPHLK (UniProt Q14980)", "probe-labelled cysteine peptide fold change": 0.0786}
{"target": "NVL_O15381_431_EICLGIPDEASR (UniProt O15381)", "probe-labelled cysteine peptide fold change": 0.275}
{"target": "NUDT16_Q96DE0_23_HACHALLYAPDPGMLFGR (UniProt Q96DE0)", "probe-labelled cysteine peptide fold change": 0.615}
{"target": "NUP153_P49790_148_SHLNFSMLESPALHCQPSTSSAFPIGSSGFSLVK (UniProt P49790)", "probe-labelled cysteine peptide fold change": 0.0348}
{"target": "NUP155_O75694_667_HNGICIYFSR (UniProt O75694)", "probe-labelled cysteine peptide fold change": 0.0846}
{"target": "NUBP2_Q9Y5Y2_54_KVGILDVDLCGPSIPR (UniProt Q9Y5Y2)", "probe-labelled cysteine peptide fold change": -0.0478}
